Patent publication US20150337267A1, “REPROGRAMMED STEM CELL” (KYOTO UNIVERSITY, priority 2013, published 2015)
At least one compound was matched to its structure with a doubt left.

Test system: iRS cells
Experiment: Conversion of iRS cells to DsRed-negative (pluripotent) cells in high-density culture
Type: cell-based, human
Settings: 20 nM added to the medium
Method: CM is conditioned medium.
The iRS cells were plated at a high density (1×10^6 cells) on a 3 cm dish coated with Matrigel, and culture was continued in a MEF-conditioned medium. From day 3, DsRed-negative cells were occasionally found, and DsRed-negative cell clump could be confirmed on day 6. On day 10, ES cell-like colony could be confirmed (FIG. 3A). The expression levels of exogenous OCT4 and SOX2 at that time were confirmed by quantitative PCR. Expression of exogenous gene disappeared on day 6 of high-density culture, and re-expression was void thereafter (FIG. 3B). Furthermore, the expression levels of the endogenous OCT4, TDGF1 and ECAD were confirmed by quantitative PCR. As a result, expression of these pluripotent marker genes was confirmed (FIG. 3C). Similarly, the mRNA expression levels of other pluripotent marker genes were confirmed on a heat map. As a result, mostly similar gene expression profiles were confirmed on day 6 and day 10 (FIG. 3D). Moreover, SSEA4 and ECAD, which are surface antigen markers showing pluripotency, were tested by an immunostaining method. As a result, both surface antigens could be recognized from day 6 (FIG. 3E). […]
iRS cells were plated at a high density (1×10^6 cells) on a 3 cm dish coated with Matrigel, 0.5 mM VPA was added to the MEF-conditioned medium and culture was continued. […] Phosphorylation of mTOR then was measured. […]

## CO[C@H]1C[C@@H]2CC[C@@H](C)[C@@](O)(O2)C(=O)C(=O)N2CCCC[C@H]2C(=O)O[C@H]([C@H](C)C[C@@H]2CC[C@@H](O)[C@H](OC)C2)CC(=O)[C@H](C)/C=C(\C)[C@@H](O)[C@@H](OC)C(=O)[C@H](C)C[C@H](C)/C=C/C=C/C=C/1C [rapamycin]
  appearance of DsRed-negative cells: did not appear
